Source: patent publication US10602743B2, “Method of inducing drought/salt tolerance using Bacillus megaterium” (Marrone Bio Innovations, Inc., priority 2012, dated 2020)
For at least one compound, name, drawing or mass did not settle the structure.

Tested on: Bacillus megaterium strain H491
Experiment: Chemical sensitivity, Biolog Phenotypic Microarray
Type: cell-based
Settings: 25° C.

Row | SMILES | H491 susceptible to compound
1 | CCCCCCCCCCCCNC(=N)N [Dodine, n-Dodecylguanidine] | susceptible
2 | CCCCc1ccc(C(=O)O)nc1 [Fusaric acid] | susceptible
3 | O=[Se](O)O [Sodium Selenite] | susceptible
